# In all, about 340,000 compounds went through this assay and about 6,200 (1.8%) were called active. The inconclusive results got no clear call from the source; some entries with a clear call stand among them for comparison. Calls follow the shape of the dose curve; as a rule, active = well fitted activation curve with a large enough effect; inconclusive = small, poorly fitted or top-dose-only effect; inactive = no such curve, though single readings can be large or run the other way. A potency beside an inconclusive call is a rough fit, not a confirmed value.
# Experiment: A quantitative high throughput screen for small molecules that induce DNA re-replication in SW480 colon adenocarcinoma cells. Also: nearly all actives have a fitted effect of over 55% in size. As to re-replication activation: % of control where 0% means no effect.
# Details: Hoechst DNA content imaging, 48 h; re-replication activation: at 46.1 µM (top of the series) unless noted
# Summary of the method: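 SW480 cells exposed to compounds for 48 hr at 37 C, 5% CO2, then Hoechst-stained 40 min. Nuclear DNA content imaged by fluorescence scanning (405 nm excitation, 500-530 nm emission); re-replication scored as increased high-intensity nuclei.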
# Potency is read from the fitted curve at half-maximal effect.
Compound,Potency,re-replication activation
CCCc1cc(CN2CCOCC2)c(O)c(CN2CCOCC2)c1O,"inconclusive: 23.1 µM [activator, single point]",
OC(CN1CCCCC1)Cn1c2ccccc2c2cc(Br)ccc21 (stereo unspecified),"inconclusive: 20.6 µM [activator, single point]",
NNC(=S)NC1CC2CC1C1C=CCC21 (stereo unspecified),"inconclusive: 23.1 µM [activator, single point]",
c1ccc(-c2cnn3c(-c4ccccc4)c(-c4ccccc4)nc3n2)cc1,inactive,
O=c1c2cc(N3CCOCC3)ccc2[nH]c(=S)n1Cc1ccco1,"inconclusive: 20.6 µM [activator, single point]",
COc1cnc(-c2ccccc2)nc1Oc1ccc(Cl)cc1C,inactive,
C/C(=N\NC(=O)c1ccc(C)cc1C)c1ccc2c(c1)Nc1ccccc1S2,"inconclusive: 18.4 µM [activator, single point]",
COc1ccc(N2CCN(S(=O)(=O)CCNC(=O)COc3ccc(Cl)cc3)CC2)cc1,"inconclusive: 0.82 µM [activator, partial curve, poor fit]",
Cc1[nH]c2ccccc2c1CN1CCC(Cc2ccccc2)CC1,"inconclusive: 23.1 µM [activator, single point]",
COCCCNC(=O)CNC(=O)c1nn(-c2ccc(OC)c(Cl)c2)c(=O)c2ccccc12,inactive,
COc1cc2c(cc1OC)C1(CCCCC1)CN(C)C2,"inconclusive: 32.6 µM [activator, single point]",
CCN1CCN(C2=C(Cl)C(=O)N(Cc3ccccc3)C2=O)CC1,inactive,
Cc1onc(-c2c(F)cccc2Cl)c1C(=O)NC1=NCCS1,inactive,
CSc1ccc(COC(=O)c2cc([N+](=O)[O-])ccc2N2CCOCC2)cc1,active: 0.058 µM,
COc1ccc(C2C(C#N)=C(N)Oc3cc(O)ccc32)cc1OC (stereo unspecified),inactive,
N#Cc1ccc(OCC(O)CN2CCC(C(O)(c3ccccc3)c3ccccc3)CC2)cc1 (stereo unspecified),"inconclusive: 29.1 µM [activator, single point]",
Fc1cccc(-c2cc3nc4c(c(N5CCOCC5)n3n2)CCCC4)c1,inactive,
O=c1[nH]c(=O)n([C@H]2C[C@H](O)[C@@H](CO)O2)cc1C(F)(F)F,"inconclusive: 1.64 µM [activator, full curve]",
COc1cccc(/C=C(\C#N)c2nc3ccc(C)cc3[nH]2)c1OCC(=O)O,inactive,
Cc1ccccc1OCCN1C(=O)C(=O)c2cccc(C)c21,"inconclusive: 29.1 µM [activator, single point]",
COc1ccccc1CCC(=O)OCC(=O)NC1CCCC1,"inconclusive: 14.6 µM [activator, single point]",
CCOc1ccc2c(c1)C(=NNC(=O)c1ccccn1)c1cc(OCC)ccc1-2,inactive,
CN(C)c1ccc(C=c2c3ccccc3n3c2cc(-c2ccccc2)[n+]3C)cc1,"inconclusive: 16.4 µM [activator, partial curve]",
CN(C(=O)c1cccc(COc2ccc(Cl)cc2Cl)c1)c1ccccc1,inactive,

# An excerpt of these results, as tab-separated lines:
Compound	Potency	re-replication activation
NNC(=S)NC1CC2CC1C1C=CCC21 (stereo unspecified)	inconclusive: 23.1 µM [activator, single point]	
c1ccc(-c2cnn3c(-c4ccccc4)c(-c4ccccc4)nc3n2)cc1	inactive	
CN(C(=O)c1cccc(COc2ccc(Cl)cc2Cl)c1)c1ccccc1	inactive	

# The results go on:

Compound,Potency,re-replication activation
CCOC(=O)C1=C(COC(=O)c2ccccc2[N+](=O)[O-])NC(=O)NC1C (stereo unspecified),"inconclusive: 4.61 µM [activator, full curve, poor fit]",
CC(=O)Oc1ccc(N2C(=O)C3C4C=CC(CC4)C3C2=O)cc1[N+](=O)[O-] (stereo unspecified),inactive,
O=C(NC1CC1)C1=C[C@H](c2ccc3c(c2)OCO3)C[C@H](OCc2ccc(CO)cc2)O1,"inconclusive: 16.4 µM [activator, single point]",
Cc1c(C(=O)Nc2cccc(Cl)c2)c2ccccn2c1CCc1ccncc1,"inconclusive: 4.11 µM [activator, full curve, poor fit]",
Cc1noc(C)c1C(=O)Nc1ccc(S(=O)(=O)N2CCC(C)CC2)cc1,active: 18.4 µM,
COc1ccc(C)cc1N(CC(=O)NCCSCc1ccco1)S(=O)(=O)c1ccc(C)cc1,"inconclusive: 16.4 µM [activator, single point]",
O=C(NC(=S)Nc1cc(Cl)ccc1N1CCOCC1)c1ccc(-c2cccc(Cl)c2)o1,inactive,
Cc1ccc(S(=O)(=O)N2CCOC2CNC(=O)C(=O)NCc2ccc(Cl)cc2)cc1 (stereo unspecified),"inconclusive: 16.4 µM [activator, partial curve, poor fit]",
CCCCNc1oc(-c2cccs2)nc1S(=O)(=O)c1ccccc1,"inconclusive: 29.1 µM [activator, partial curve, poor fit]",
CCc1noc(C)c1C(=O)N1CCN(c2cccc(C)c2C)CC1,inactive,
CCN(CC)CCNS(=O)(=O)c1ccc(OC)c(Br)c1,inactive,
Cc1ccc(-n2c(SCC(=O)N3CCOCC3)nnc2-c2ccncc2)cc1C,"inconclusive: 4.11 µM [activator, single point]",
Cc1ccc(NC(=O)CCN2CCC(Cc3ccccc3)CC2)cc1,inactive,
COc1ccccc1CC1S/C(=N/N=C/c2ccco2)NC1=O (stereo unspecified),"inconclusive: 11.6 µM [activator, single point]",
COC(=O)c1ccc(N2CCN(C)CC2)c(NC(=O)c2ccc(Br)o2)c1,"inconclusive: 6.51 µM [activator, single point]",
O=[N+]([O-])c1cccc(C(=Nc2ccccc2)NO)c1,inactive,
COC(=O)c1ccc(=O)c2nc3/c(=C/O)c(O)cc(=O)c3[nH]c12,inactive,
C=CCNc1cc(C)oc(=O)c1C(=O)CCC,"inconclusive: 29.1 µM [activator, single point]",
CC(=O)OCC1(O)CC23CCC4c5ccoc5CCC4(C)C2CCC1C3 (stereo unspecified),"inconclusive: 16.4 µM [activator, single point]",
O=C(COc1ccc(Br)cc1)N/N=C1\SCC(=O)N1c1ccc(F)cc1,"inconclusive: 6.51 µM [activator, partial curve, poor fit]",
O=C(Nc1ncc([N+](=O)[O-])s1)C1CC(=O)N(c2ccc(F)cc2)C1 (stereo unspecified),"inconclusive: 29.1 µM [activator, single point]",
Cc1cc(C)c(Cn2c3ccccc3c3cnn(CC(=O)NCc4ccccn4)c(=O)c32)c(C)c1,"inconclusive: 29.1 µM [activator, single point]",
O=C(/C=C/c1ccc(Cl)cc1)NCCSc1ccccc1,inactive,
CCCCCCCCCCCCCCCCOCCOCCOCCOCCOCCOCCOCCOCCOCCOCCOCCOCCOCCOCCOCCOCCOCCOCCOCCOCCO,"inconclusive: 18.8 µM [activator, partial curve]",

Compound,Potency,re-replication activation
Cc1cccc(CNc2ccc(C(CC(N)=O)NC(=O)Cc3cccc4ccccc34)cc2[N+](=O)[O-])c1 (stereo unspecified),"inconclusive: 4.11 µM [activator, partial curve, poor fit]",
COc1cc(-c2cc3nc4ccccc4n3c(N)c2C#N)cc(OC)c1OC,"inconclusive: 14.6 µM [activator, partial curve]",
c1csc(Cn2c(-c3cccs3)nc3ccccc32)c1,inactive,
COc1ccc(N/C(C)=C/C(=O)c2ccccc2)cc1,inactive,
COc1ccccc1N(C(=O)CCl)c1cn(C(C)=O)c2ccccc12,"inconclusive: 25.9 µM [activator, single point]",
COc1ccc(N2Cc3ccccc3C2=NC(=O)c2ccc(C)cc2)cc1OC,"inconclusive: 0.231 µM [activator, single point]",
O=C(O)c1cc(C(=O)O)cc(-c2ccc(/C=c3/sc4nc5ccccc5n4c3=O)o2)c1,"inconclusive: 18.4 µM [activator, single point]",
COc1ccc2cc3cc(C(=O)NCCCN4CCC(C)CC4)oc3nc2c1,"inconclusive: 29.1 µM [activator, single point]",
c1ccc(-n2cnc3cc(NCc4ccncc4)ccc32)cc1,"inconclusive: 18.4 µM [activator, single point]",
CCN(CC)CCCNC(=O)c1cc(-c2ccc(Cl)c(Cl)c2)on1,"inconclusive: 29.1 µM [activator, single point]",
COc1ccc(-n2nc(C(=O)NCC(=O)N3CCN(c4cccc(Cl)c4)CC3)c3ccccc3c2=O)c(OC)c1,inactive,
COc1ccc2cc3cc(C(=O)N(C)C4CCCCC4)oc3nc2c1,"inconclusive: 29.1 µM [activator, single point]",
O=C(CSc1nnc2sc3ccccc3n12)NCc1ccco1,"inconclusive: 14.1 µM [activator, single point]",
COc1ccc(N(CC(=O)N2CCc3ccccc3C2)S(=O)(=O)c2ccccc2)cc1,inactive,
CC(C)(C)NC(=O)CN1C(=O)NC(c2ccccc2)(c2ccccc2)C1=O,inactive,
Oc1ccc(/C=N/n2c(COc3ccccc3)n[nH]c2=S)cc1O,"inconclusive: 29.1 µM [activator, single point]",
Cc1ccc(-c2csc3ncn(CC(=O)O)c(=O)c23)cc1C,,inconclusive: 11.1% [activator]
CN(C(=O)c1cc2c(=O)n3ccccc3nc2s1)C1CCCCC1,"inconclusive: 29.1 µM [activator, single point]",
Cc1ccc2oc(C(=O)NCc3ncc(C)[nH]3)c(C)c2c1,active: 16.4 µM,
Cc1cc(C)c(OCCCNC2CCCC2)c(Br)c1,inactive,
COc1c(O)cc2c(c1O)[C@@H]1OC(CO)C(O)C(O)[C@H]1OC2=O (stereo partly specified),"inconclusive: 0.184 µM [activator, single point]",
CCN1CCN(CC(=O)c2cc(Cl)ccc2Cl)CC1,"inconclusive: 25.9 µM [activator, single point]",
COc1cc(C(=O)NCCN2C(=O)S/C(=C\c3cccs3)C2=O)cc(OC)c1OC,"inconclusive: 18.4 µM [activator, single point]",
